Experiment in all cases: cross-linking; intact purified yeast mitochondria (5 mg/ml, isotonic buffer: 250 mM sucrose, 1 mM EDTA, 10 mM MOPS-KOH, pH 7.2) crosslinked in organello with 2 mM CBDPS-H8/D8, 21 °C 10 min then on ice 110 min; Lys-Lys inter-protein crosslinked peptides enriched (SCX, avidin) and identified by LC-MS/MS, FDR 2%
Experiment [1] has as its target PET9 (yeast (endogenous in mitochondria of strain YPH499)) (UniProt P18239).
The target in experiment [2] is YTA12 (yeast (endogenous in mitochondria of strain YPH499)) (UniProt P40341).
The target of experiment [3] is SSC1 (yeast (endogenous in mitochondria of strain YPH499)) (UniProt P0CS90).
Experiment [4] deals with T1, ATP4 (yeast (endogenous in mitochondria of strain YPH499)) (UniProt P05626).
T1 sequence: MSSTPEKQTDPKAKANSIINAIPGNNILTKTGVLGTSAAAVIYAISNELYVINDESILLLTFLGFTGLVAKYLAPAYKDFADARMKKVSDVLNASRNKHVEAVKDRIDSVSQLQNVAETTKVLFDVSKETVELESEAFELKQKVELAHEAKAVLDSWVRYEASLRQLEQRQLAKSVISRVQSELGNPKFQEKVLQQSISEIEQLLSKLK

Protein sequences, listed by entry. Tags and fused reporters are not part of them. Residues count along the entry.
UniProt P18239: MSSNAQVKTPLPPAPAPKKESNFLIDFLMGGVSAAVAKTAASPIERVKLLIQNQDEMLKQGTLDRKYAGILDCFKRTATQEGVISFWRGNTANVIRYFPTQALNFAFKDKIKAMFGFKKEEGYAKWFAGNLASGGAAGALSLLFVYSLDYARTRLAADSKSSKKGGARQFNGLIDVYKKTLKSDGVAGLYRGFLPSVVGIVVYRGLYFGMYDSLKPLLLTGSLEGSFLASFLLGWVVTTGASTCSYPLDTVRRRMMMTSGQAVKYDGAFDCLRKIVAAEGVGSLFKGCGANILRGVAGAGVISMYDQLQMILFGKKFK
UniProt P40341: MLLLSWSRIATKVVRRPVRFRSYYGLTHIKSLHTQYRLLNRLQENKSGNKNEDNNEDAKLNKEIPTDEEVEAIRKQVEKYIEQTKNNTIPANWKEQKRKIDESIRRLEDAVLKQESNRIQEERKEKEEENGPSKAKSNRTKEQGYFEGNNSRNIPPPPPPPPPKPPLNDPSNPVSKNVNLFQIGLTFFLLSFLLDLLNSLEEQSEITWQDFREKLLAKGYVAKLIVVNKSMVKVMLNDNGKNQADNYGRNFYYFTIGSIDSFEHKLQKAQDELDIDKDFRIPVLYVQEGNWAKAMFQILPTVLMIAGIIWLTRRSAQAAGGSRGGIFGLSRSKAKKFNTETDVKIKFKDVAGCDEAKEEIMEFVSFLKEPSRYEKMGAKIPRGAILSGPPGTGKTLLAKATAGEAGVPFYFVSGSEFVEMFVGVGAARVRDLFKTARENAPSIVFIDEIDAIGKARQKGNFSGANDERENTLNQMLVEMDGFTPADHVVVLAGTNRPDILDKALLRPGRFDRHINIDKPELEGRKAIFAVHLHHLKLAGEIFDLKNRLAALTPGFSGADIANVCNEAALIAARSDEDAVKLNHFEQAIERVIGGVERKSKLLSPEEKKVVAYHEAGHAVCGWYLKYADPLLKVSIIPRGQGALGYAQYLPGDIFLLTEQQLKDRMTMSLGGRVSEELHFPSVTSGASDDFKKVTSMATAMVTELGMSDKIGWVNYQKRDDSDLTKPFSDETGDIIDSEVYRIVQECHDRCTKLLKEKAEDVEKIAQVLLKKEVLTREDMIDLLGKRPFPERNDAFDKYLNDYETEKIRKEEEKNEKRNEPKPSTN
UniProt P0CS90, residues 24-654: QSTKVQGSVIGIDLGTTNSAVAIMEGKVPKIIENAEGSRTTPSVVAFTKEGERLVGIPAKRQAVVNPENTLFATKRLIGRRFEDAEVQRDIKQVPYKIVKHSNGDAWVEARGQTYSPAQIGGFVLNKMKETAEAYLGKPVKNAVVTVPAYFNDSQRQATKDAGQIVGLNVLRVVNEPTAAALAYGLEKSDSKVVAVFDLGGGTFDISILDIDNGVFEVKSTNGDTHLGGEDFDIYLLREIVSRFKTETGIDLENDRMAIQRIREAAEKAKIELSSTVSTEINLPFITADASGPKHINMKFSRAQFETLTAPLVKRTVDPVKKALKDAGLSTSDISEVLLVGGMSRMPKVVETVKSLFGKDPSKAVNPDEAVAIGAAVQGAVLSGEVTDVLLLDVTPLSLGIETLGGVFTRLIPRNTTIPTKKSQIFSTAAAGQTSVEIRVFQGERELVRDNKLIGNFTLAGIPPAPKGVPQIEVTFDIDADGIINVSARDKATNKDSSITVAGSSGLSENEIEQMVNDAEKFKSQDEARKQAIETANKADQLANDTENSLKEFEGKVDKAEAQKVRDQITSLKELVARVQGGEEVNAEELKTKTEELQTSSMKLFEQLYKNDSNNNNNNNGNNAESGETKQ
UniProt P18238: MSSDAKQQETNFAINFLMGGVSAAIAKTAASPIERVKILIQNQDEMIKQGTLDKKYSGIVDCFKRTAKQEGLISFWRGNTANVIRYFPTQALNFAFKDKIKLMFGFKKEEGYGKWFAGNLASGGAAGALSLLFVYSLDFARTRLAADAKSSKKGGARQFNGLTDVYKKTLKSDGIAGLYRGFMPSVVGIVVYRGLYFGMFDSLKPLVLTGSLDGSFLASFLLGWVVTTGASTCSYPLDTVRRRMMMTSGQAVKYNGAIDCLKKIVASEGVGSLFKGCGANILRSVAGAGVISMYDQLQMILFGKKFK
UniProt P39925: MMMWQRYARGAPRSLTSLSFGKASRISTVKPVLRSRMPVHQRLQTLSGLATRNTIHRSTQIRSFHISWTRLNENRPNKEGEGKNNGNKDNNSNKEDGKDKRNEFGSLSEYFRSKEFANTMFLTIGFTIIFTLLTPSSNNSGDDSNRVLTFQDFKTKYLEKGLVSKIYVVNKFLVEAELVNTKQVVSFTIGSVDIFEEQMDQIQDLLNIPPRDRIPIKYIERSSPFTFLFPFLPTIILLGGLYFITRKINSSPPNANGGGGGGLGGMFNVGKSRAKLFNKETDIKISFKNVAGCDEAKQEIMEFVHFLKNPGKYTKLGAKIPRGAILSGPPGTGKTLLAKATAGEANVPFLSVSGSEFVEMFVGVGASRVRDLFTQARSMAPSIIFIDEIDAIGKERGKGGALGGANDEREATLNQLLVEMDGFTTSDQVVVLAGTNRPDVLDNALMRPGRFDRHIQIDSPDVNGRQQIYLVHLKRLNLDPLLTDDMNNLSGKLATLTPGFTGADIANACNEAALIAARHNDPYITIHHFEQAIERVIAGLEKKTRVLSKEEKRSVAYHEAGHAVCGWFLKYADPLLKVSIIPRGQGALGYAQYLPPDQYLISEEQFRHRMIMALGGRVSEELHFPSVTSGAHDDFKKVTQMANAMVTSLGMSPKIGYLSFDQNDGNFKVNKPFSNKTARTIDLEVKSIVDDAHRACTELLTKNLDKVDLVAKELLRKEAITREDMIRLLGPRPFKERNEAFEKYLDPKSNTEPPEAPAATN
UniProt P07251, residues 36-545: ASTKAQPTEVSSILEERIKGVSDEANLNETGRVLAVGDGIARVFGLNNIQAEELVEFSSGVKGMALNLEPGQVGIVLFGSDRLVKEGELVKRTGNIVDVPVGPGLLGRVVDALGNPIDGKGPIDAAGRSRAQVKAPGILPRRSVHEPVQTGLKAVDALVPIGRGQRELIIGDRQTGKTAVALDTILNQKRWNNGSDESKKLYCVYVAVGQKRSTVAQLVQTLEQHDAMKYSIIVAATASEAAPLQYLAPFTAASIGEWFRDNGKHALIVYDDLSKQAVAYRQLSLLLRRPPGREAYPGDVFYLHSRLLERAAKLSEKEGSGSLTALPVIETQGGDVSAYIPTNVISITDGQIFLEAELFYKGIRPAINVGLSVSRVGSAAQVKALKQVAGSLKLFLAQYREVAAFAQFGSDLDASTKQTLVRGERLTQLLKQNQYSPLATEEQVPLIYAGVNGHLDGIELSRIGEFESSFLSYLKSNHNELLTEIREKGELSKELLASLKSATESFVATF
UniProt P00830, residues 34-511: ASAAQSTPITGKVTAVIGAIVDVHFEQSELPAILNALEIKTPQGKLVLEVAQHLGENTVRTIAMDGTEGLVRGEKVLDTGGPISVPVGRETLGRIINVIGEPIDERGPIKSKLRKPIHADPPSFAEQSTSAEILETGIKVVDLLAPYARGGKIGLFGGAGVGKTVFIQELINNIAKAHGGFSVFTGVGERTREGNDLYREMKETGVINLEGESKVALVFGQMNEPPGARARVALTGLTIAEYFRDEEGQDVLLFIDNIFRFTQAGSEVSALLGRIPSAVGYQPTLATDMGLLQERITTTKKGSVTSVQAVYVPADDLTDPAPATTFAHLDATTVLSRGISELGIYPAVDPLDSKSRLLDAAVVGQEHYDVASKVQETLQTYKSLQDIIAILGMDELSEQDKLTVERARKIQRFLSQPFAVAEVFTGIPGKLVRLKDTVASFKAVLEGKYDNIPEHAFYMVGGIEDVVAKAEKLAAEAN
UniProt P00044: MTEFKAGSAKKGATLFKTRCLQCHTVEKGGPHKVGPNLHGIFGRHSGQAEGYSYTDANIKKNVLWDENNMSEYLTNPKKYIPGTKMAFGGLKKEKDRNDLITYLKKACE

The target in experiment [5] is T2, ATP5 (yeast (endogenous in mitochondria of strain YPH499)) (UniProt P09457).
T2 sequence: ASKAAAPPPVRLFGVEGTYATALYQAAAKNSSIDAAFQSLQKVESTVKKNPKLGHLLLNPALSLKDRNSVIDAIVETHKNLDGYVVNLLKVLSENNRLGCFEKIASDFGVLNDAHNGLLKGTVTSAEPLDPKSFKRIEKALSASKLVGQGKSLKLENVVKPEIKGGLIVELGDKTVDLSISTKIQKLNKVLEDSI

For experiment [6], the target named is T3, OM45 (yeast (endogenous in mitochondria of strain YPH499)) (UniProt P16547).
T3 sequence: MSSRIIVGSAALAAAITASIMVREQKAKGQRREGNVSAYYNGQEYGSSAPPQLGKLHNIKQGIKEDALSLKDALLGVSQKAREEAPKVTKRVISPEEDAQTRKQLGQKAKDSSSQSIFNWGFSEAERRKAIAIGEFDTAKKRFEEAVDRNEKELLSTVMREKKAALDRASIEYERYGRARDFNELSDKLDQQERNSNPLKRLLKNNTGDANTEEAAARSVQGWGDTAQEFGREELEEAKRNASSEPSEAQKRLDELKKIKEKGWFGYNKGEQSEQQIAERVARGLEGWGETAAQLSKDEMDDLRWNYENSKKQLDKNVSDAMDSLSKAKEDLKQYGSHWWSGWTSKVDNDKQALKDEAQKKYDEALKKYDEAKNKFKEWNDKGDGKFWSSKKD

Results are given in words; binding and its absence hold for the method and conditions named. Binding seen in cells or lysates may run through a third protein. Some binding calls cover weakened binding; strength is not graded here.

As for AAC3 (from UniProt P18238 1-307), in experiment [1], the binding entry is on record as “binds”.
As to AFG3 (from UniProt P39925 1-761), the binding entry in experiment [2] was “binds”.
As for ATP1 (from UniProt P07251 36-545), in experiment [3], the binding result is given as “binds”.
As to ATP2 (from UniProt P00830 34-511), the binding result in experiment [4] and in experiment [5] was “binds” throughout.
For the substance CYC1 (from UniProt P00044 1-109), in experiment [6], the binding entry is on record as “binds”.

Source of the values: publication PMC7124466.
